The experiment addresses T1, MEIOC (mouse (endogenous in testis)) (UniProt A2AG06).
T1 sequence: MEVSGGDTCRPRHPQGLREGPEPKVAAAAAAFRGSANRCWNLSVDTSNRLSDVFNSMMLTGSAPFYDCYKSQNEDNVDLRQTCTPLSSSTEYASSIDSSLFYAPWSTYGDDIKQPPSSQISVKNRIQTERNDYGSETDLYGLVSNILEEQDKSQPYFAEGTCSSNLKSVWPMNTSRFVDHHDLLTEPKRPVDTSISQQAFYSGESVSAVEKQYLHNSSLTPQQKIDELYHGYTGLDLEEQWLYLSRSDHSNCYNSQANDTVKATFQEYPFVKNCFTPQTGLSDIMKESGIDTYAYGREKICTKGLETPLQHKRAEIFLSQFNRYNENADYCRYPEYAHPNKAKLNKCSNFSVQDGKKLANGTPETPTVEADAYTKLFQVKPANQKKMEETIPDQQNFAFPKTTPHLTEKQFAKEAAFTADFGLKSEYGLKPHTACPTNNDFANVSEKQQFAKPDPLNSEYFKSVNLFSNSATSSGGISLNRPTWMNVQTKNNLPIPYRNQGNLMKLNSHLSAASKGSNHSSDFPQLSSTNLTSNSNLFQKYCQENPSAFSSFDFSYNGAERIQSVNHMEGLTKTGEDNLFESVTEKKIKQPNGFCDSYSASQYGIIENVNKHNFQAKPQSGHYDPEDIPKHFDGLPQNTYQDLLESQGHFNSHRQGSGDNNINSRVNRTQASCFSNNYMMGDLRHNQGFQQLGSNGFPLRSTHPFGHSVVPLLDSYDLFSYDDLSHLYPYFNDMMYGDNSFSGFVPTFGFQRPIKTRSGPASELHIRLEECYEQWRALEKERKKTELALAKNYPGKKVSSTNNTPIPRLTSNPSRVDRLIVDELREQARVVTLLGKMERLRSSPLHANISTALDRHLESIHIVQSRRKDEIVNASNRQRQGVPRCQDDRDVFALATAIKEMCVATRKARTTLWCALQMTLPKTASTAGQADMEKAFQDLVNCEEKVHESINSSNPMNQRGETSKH
The experiment can be described thus: affinity purification with mass spectrometry; anti-MEIOC antibody crosslinked to Protein G Dynabeads; lysates of P15 mouse testes (wild-type or Meioc-deficient; IgG control); lysis buffer 25mM Tris-HCl pH7.5, 150mM NaCl, 1.5mM MgCl2, 1mM DTT, 0.4% Triton X-100, Benzonase nuclease; TMT quantitative mass spectrometry.

No constants are given. Whether binding was seen depends on the method and setting. Binding seen in cells or lysates may run through a third protein. A yes stands for co-enrichment or nearness to the bait. Other partners may have been found.

B1: YTHDC2 (protein, UniProt B2RR83 1-1445)
chain: MSRPSSVSPRPPAPSGGGTGGGGGGSGGGGGGGGGGPASCGPGGGGRAKGLKDIRIDEEVKIAVNIALERFRYGDQREMEFPSSLTSTERAFIHRLSQSLGLVSKSKGKGANRYLTVKKKDGSETAHAMMTCNLTHNTKHAVRSLIQRFPVTNKERTELLPKTERGNVFAVEAENREMSKTSGRLNNGIPQVPVKRGESEFDSFRQSLPVFEKQEEIVKIIKENKVVLIVGETGSGKTTQIPQFLLDDCFKNGIPCRIFCTQPRRLAAIAVAERVAAERRERIGQTIGYQIRLESRVSPKTLLTFCTNGVLLRTLMAGDSTLSTVTHVIVDEVHERDRFSDFLLTKLRDLLQKHPTLKLILSSAALDVNLFIRYFGSCPVIYIQGRPFEVKEMFLEDILRTTGYTNKEMLKYKKEKQREEKQQTTLTEWYSAQENTFKPESQRQRAVASVSEEYDLLDDGGDAVFSQLTEKDVNCLEPWLIKEMDACLSDIWLHKDVDAFAQVFHLILTENVSVDYRHSETSATALMVAAGRGFTSQVEQLISMGANVHSKASNGWMALDWAKHFGQTEIVDLLESYSASLEFGNLDESSLVQTNGNDLSAEDRELLKAYHHSFDDEKVDLDLIMHLLYNICHSCDAGAILIFLPGYDEIVGLRDRILFDDKRFADNTHRYQVFMLHSNMQTSDQKKVLKNPPAGVRKIILSTNIAETSITVNDVVFVIDSGKVKEKSFDALNFVTMLKMVWISKASAIQRKGRAGRCRPGICFRLFSRLRFQNMLEFQTPELLRMPLQELCLHTKLLAPVNCTIADFLMKAPEPPPALIVRNAVQMLKTIDAMDAWEDLTELGYHLADLPVEPHLGKMVLCAVVLKCLDPILTIACTLAYRDPFVLPTQASQKRAAMLCRKRFTAGTFSDHMALLRAFQAWQKARSDGWERAFCEKNFLSQATMEIIIGMRTQLLGQLRASGFVRARGGGDIRDVNTNSENWAVVKAALVAGMYPNLVHVDRENVILTGPKEKKVRFHPTSVLSQPQYKKIPPANGQAAAIQALPTDWLIYDEMTRAHRIANIRCCSAVTPVTVLVFCGPARLASNALQEPSSFRADGIPNDSSDSEMEDRTTANLAALKLDEWLNFKLEPEAASLLLQLRQKWHSLFLRRMRAPSKPWSQVDEATIRAIIAVLSTEEQSAGLQQPSGIGQRPRPMSSEELPLASSWRSNNSRKSTADTEFADGSTTGERVLMKSPSPALHPPQKYKDRGILHPKRSTDDRSDQSSVKSTDSSSYPSPCASPSPPSSGKGSKSPSPRPNMPIRYFIMKSSNLRNLEISQQKGIWSTTPSNERKLNRAFWESSMVYLVFSVQGSGHFQGFSRMSSEIGREKSQDWGSAGLGGVFKVEWIRKESLPFQFAHHLLNPWNDNKKVQISRDGQELEPQVGEQLLQLWERLPLGEKTTSD
In the case of B1, the binding entry is on record as “binds”.

Source of the values: publication PMC5397071.
